Experimental data reported in paper PMC8196013.
Results are given in words; binding and its absence hold for the method and conditions named. For part of these data: In cells and extracts the contact can be indirect. Some results given as binding are weak or reduced against the parent protein; the word gives no strength.

Sequences of proteins named here, by UniProt entry; tags and fusion partners are left off.
UniProt P0A6F5: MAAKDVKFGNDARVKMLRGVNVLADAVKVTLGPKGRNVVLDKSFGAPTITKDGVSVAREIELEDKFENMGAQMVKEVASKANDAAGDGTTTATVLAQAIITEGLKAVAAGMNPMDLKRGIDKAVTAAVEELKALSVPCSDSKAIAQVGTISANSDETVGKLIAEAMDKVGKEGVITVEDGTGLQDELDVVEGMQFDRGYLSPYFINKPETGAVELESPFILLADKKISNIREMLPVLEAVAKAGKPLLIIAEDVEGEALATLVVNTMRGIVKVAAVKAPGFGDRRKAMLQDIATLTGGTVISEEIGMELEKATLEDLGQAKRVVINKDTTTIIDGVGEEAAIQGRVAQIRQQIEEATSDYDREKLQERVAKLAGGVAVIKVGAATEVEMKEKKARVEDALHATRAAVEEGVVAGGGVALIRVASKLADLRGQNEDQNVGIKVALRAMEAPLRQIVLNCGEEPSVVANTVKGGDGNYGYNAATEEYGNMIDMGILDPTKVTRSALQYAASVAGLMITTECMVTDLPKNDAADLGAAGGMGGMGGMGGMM
UniProt P0A8V2: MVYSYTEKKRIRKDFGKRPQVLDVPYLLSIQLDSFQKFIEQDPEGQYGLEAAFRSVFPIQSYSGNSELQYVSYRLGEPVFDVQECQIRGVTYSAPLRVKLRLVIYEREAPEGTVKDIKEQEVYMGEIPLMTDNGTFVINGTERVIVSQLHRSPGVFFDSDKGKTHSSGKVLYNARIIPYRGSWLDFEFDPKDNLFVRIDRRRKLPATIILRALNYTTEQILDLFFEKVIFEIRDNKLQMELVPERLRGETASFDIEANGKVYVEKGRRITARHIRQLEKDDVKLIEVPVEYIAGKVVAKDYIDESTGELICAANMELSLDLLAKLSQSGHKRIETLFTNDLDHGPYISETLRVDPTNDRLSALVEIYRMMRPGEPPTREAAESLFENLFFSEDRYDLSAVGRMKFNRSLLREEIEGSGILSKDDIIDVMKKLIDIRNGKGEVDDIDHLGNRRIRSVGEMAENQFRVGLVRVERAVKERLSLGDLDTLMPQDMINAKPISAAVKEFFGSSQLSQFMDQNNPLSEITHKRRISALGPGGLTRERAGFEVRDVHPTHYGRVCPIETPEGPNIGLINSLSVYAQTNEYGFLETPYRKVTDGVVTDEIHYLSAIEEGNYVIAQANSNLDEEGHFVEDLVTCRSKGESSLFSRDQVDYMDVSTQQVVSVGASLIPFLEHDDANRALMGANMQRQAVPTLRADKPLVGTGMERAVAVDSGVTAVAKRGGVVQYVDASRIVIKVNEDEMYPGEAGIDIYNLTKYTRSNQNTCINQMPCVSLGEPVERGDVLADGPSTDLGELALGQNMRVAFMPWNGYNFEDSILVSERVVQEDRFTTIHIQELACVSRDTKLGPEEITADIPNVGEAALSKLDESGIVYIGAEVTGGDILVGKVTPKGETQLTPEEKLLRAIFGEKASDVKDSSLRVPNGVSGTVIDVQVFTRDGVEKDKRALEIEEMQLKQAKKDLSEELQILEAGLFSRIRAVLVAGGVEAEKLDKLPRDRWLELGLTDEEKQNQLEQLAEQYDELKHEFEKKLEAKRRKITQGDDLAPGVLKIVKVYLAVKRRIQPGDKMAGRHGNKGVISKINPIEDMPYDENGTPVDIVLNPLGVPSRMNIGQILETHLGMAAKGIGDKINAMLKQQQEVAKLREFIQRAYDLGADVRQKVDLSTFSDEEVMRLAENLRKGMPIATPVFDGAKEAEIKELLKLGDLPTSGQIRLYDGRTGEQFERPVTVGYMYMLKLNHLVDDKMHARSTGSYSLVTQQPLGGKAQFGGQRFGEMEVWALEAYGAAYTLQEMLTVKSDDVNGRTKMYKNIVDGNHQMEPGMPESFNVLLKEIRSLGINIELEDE
UniProt P0A8T7: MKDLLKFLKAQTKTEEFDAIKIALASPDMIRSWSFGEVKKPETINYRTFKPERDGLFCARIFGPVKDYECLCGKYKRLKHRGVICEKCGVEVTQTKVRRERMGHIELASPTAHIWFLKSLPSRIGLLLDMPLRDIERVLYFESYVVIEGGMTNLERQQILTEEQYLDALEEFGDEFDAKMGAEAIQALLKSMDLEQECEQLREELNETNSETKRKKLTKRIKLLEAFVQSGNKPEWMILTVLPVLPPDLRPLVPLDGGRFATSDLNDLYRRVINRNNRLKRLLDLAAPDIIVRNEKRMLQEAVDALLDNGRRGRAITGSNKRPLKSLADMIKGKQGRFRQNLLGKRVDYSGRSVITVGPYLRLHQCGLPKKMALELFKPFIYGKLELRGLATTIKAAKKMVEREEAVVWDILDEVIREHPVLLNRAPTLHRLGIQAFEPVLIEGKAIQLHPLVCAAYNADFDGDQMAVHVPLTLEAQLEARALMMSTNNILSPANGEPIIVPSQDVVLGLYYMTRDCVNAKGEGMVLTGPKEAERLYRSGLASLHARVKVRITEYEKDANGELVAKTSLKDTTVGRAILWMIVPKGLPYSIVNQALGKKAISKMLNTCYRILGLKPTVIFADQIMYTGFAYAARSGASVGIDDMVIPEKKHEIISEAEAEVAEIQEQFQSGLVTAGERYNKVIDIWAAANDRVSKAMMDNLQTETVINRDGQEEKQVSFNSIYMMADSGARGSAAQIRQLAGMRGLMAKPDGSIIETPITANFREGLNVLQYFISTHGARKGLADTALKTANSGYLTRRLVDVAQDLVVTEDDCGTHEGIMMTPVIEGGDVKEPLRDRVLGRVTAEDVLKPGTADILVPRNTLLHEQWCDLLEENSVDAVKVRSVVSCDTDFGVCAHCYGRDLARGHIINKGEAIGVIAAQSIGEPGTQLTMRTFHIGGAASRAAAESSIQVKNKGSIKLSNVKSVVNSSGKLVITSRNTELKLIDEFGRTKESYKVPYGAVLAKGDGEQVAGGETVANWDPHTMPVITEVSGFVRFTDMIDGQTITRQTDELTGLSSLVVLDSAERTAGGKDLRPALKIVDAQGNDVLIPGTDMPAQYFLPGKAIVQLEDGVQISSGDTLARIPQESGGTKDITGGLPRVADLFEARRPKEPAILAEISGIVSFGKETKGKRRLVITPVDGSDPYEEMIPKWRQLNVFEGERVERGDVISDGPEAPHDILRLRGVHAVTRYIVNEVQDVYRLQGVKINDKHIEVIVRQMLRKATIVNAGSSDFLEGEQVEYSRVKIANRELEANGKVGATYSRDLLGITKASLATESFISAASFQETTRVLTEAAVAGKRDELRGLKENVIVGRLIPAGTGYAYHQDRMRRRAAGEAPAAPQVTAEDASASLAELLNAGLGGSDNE

T1: YqjD (E. coli K12 (endogenous in BW25113)) (UniProt P64581)
T1 sequence: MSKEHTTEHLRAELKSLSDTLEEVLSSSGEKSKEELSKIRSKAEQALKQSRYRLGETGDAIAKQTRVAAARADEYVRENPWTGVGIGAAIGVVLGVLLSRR

B1: metK (protein, UniProt P0A817 1-384)
chain: MAKHLFTSESVSEGHPDKIADQISDAVLDAILEQDPKARVACETYVKTGMVLVGGEITTSAWVDIEEITRNTVREIGYVHSDMGFDANSCAVLSAIGKQSPDINQGVDRADPLEQGAGDQGLMFGYATNETDVLMPAPITYAHRLVQRQAEVRKNGTLPWLRPDAKSQVTFQYDDGKIVGIDAVVLSTQHSEEIDQKSLQEAVMEEIIKPILPAEWLTSATKFFINPTGRFVIGGPMGDCGLTGRKIIVDTYGGMARHGGGAFSGKDPSKVDRSAAYAARYVAKNIVAAGLADRCEIQVSYAIGVAEPTSIMVETFGTEKVPSEQLTLLVREFFDLRPYGLIQMLDLLHPIYKETAAYGHFGREHFPWEKTDKAQLLRDAAGLK
B2: ogt (protein, UniProt P0AFH0 1-171)
chain: MLRLLEEKIATPLGPLWVICDEQFRLRAVEWEEYSERMVQLLDIHYRKEGYERISATNPGGLSDKLREYFAGNLSIIDTLPTATGGTPFQREVWKTLRTIPCGQVMHYGQLAEQLGRPGAARAVGAANGSNPISIVVPCHRVIGRNGTMTGYAGGVQRKEWLLRHEGYLLL
B3: yciO (protein, UniProt P0AFR4 1-206)
chain: MSQFFYIHPDNPQQRLINQAVEIVRKGGVIVYPTDSGYALGCKIEDKNAMERICRIRQLPDGHNFTLMCRDLSELSTYSFVDNVAFRLMKNNTPGNYTFILKGTKEVPRRLLQEKRKTIGMRVPSNPIAQALLEALGEPMLSTSLMLPGSEFTESDPEEIKDRLEKQVDLIIHGGYLGQKPTTVIDLTDDTPVVVREGVGDVKPFL
B4: yafD (protein, UniProt P0A8U2 1-266)
chain: MRKNTYAMRYVAGQPAERILPPGSFASIGQALPPGEPLSTEERIRILVWNIYKQQRAEWLSVLKNYGKDAHLVLLQEAQTTPELVQFATANYLAADQVPAFVLPQHPSGVMTLSAAHPVYCCPLREREPILRLAKSALVTVYPLPDTRLLMVVNIHAVNFSLGVDVYSKQLLPIGDQIAHHSGPVIMAGDFNAWSRRRMNALYRFAREMSLRQVRFTDDQRRRAFGRPLDFVFYRGLNVSEASVLVTRASDHNPLLVEFSPGKPDK
B5: ftsE (protein, UniProt P0A9R7 1-222)
chain: MIRFEHVSKAYLGGRQALQGVTFHMQPGEMAFLTGHSGAGKSTLLKLICGIERPSAGKIWFSGHDITRLKNREVPFLRRQIGMIFQDHHLLMDRTVYDNVAIPLIIAGASGDDIRRRVSAALDKVGLLDKAKNFPIQLSGGEQQRVGIARAVVNKPAVLLADEPTGNLDDALSEGILRLFEEFNRVGVTVLMATHDINLISRRSYRMLTLSDGHLHGGVGHE
B6: cysD (protein, UniProt P21156 1-302)
chain: MDQIRLTHLRQLEAESIHIIREVAAEFSNPVMLYSIGKDSSVMLHLARKAFYPGTLPFPLLHVDTGWKFREMYEFRDRTAKAYGCELLVHKNPEGVAMGINPFVHGSAKHTDIMKTEGLKQALNKYGFDAAFGGARRDEEKSRAKERIYSFRDRFHRWDPKNQRPELWHNYNGQINKGESIRVFPLSNWTEQDIWQYIWLENIDIVPLYLAAERPVLERDGMLMMIDDNRIDLQPGEVIKKRMVRFRTLGCWPLTGAVESNAQTLPEIIEEMLVSTTSERQGRVIDRDQAGSMELKKRQGYF
B7: yjjU (protein, UniProt P39407 1-357)
chain: MGQRIPVTLGNIAPLSLRPFQPGRIALVCEGGGQRGIFTAGVLDEFMRAQFNPFDLYLGTSAGAQNLSAFICNQPGYARKVIMRYTTKREFFDPLRFVRGGNLIDLDWLVEATASQMPLQMDTAARLFDSGKSFYMCACRQDDYAPNYFLPTKQNWLDVIRASSAIPGFYRSGVSLEGINYLDGGISDAIPVKEAARQGAKTLVVIRTVPSQMYYTPQWFKRMERWLGDSSLQPLVNLVQHHETSYRDIQQFIEKPPGKLRIFEIYPPKPLHSIALGSRIPALREDYKLGRLCGRYFLATVGKLLTEKAPLTRHLVPVVTPESIVIPPAPVANDTLVAEVSDAPQANDPTFNNEDLA
B8: dadX (protein, UniProt P29012 1-356)
chain: MTRPIQASLDLQALKQNLSIVRQAATHARVWSVVKANAYGHGIERIWSAIGATDGFALLNLEEAITLRERGWKGPILMLEGFFHAQDLEIYDQHRLTTCVHSNWQLKALQNARLKAPLDIYLKVNSGMNRLGFQPDRVLTVWQQLRAMANVGEMTLMSHFAEAEHPDGISGAMARIEQAAEGLECRRSLSNSAATLWHPEAHFDWVRPGIILYGASPSGQWRDIANTGLRPVMTLSSEIIGVQTLKAGERVGYGGRYTARDEQRIGIVAAGYADGYPRHAPTGTPVLVDGVRTMTVGTVSMDMLAVDLTPCPQAGIGTPVELWGKEIKIDDVAAAAGTVGYELMCALALRVPVVTV
B9: gsiA (protein, UniProt P75796 1-623)
chain: MPHSDELDAGNVLAVENLNIAFMQDQQKIAAVRNLSFSLQRGETLAIVGESGSGKSVTALALMRLLEQAGGLVQCDKMLLQRRSREVIELSEQNAAQMRHVRGADMAMIFQEPMTSLNPVFTVGEQIAESIRLHQNASREEAMVEAKRMLDQVRIPEAQTILSRYPHQLSGGMRQRVMIAMALSCRPAVLIADEPTTALDVTIQAQILQLIKVLQKEMSMGVIFITHDMGVVAEIADRVLVMYQGEAVETGTVEQIFHAPQHPYTRALLAAVPQLGAMKGLDYPRRFPLISLEHPAKQAPPIEQKTVVDGEPVLRVRNLVTRFPLRSGLLNRVTREVHAVEKVSFDLWPGETLSLVGESGSGKSTTGRALLRLVESQGGEIIFNGQRIDTLSPGKLQALRRDIQFIFQDPYASLDPRQTIGDSIIEPLRVHGLLPGKDAAARVAWLLERVGLLPEHAWRYPHEFSGGQRQRICIARALALNPKVIIADEAVSALDVSIRGQIINLLLDLQRDFGIAYLFISHDMAVVERISHRVAVMYLGQIVEIGPRRAVFENPQHPYTRKLLAAVPVAEPSRQRPQRVLLSDDLPSNIHLRGEEVAAVSLQCVGPGHYVAQPQSEYAFMRR
B10: yifE (protein, UniProt P0ADN2 1-112)
chain: MAESFTTTNRYFDNKHYPRGFSRHGDFTIKEAQLLERHGYAFNELDLGKREPVTEEEKLFVAVCRGEREPVTEAERVWSKYMTRIKRPKRFHTLSGGKPQVEGAEDYTDSDD
B11: YacL-SPA (protein, UniProt P0A8E5 1-120)
chain: MDYEFLRDITGVVKVRMSMGHEVVGHWFNEEVKENLALLDEVEQAAHALKGSERSWQRAGHEYTLWMDGEEVMVRANQLEFAGDEMEEGMNYYDEESLSLCGVEDFLQVVAAYRNFVLQK
B12: rpoE (protein, UniProt P0AGB6 1-191)
chain: MSEQLTDQVLVERVQKGDQKAFNLLVVRYQHKVASLVSRYVPSGDVPDVVQEAFIKAYRALDSFRGDSAFYTWLYRIAVNTAKNYLVAQGRRPPSSDVDAIEAENFESGGALKEISNPENLMLSEELRQIVFRTIESLPEDLRMAITLRELDGLSYEEIAAIMDCPVGTVRSRIFRAREAIDNKVQPLIRR
B13: ompA (protein, UniProt P0A910 22-346)
chain: APKDNTWYTGAKLGWSQYHDTGFINNNGPTHENQLGAGAFGGYQVNPYVGFEMGYDWLGRMPYKGSVENGAYKAQGVQLTAKLGYPITDDLDIYTRLGGMVWRADTKSNVYGKNHDTGVSPVFAGGVEYAITPEIATRLEYQWTNNIGDAHTIGTRPDNGMLSLGVSYRFGQGEAAPVVAPAPAPAPEVQTKHFTLKSDVLFNFNKATLKPEGQAALDQLYSQLSNLDPKDGSVVVLGYTDRIGSDAYNQGLSERRAQSVVDYLISKGIPADKISARGMGESNPVTGNTCDNVKQRAALIDCLAPDRRVEIEVKGIKDVVTQPQA
B14: YgaM (protein, UniProt P0ADQ7 1-109)
chain: MFNRPNRNDVDDGVQDIQNDVNQLADSLESVLKSWGSDAKGEAEAARSKAQALLKETRARMHGRTRVQQAARDAVGCADSFVRERPWCSVGTAAAVGIFIGALLSMRKS

Molecular target: GroEL (E. coli K12 (endogenous in the lysate)) (UniProt P0A6F5)
Assay: cross-linking; BS3 or DSSO (0.75 mM, 2 h on ice) in the single SEC fractions of E. coli K12 lysate, fractions pooled, LC-MS; PPIs at 1% heteromeric PPI-FDR

| binding | Binder |
| --- | --- |
| binds | B1 |
| binds | B2 |
| binds | B3 |
| binds | B4 |
| binds | B5 |
| binds | B6 |
| binds | B7 |
| binds | B8 |
| binds | B9 |

Molecular target: GroEL (E. coli K12 (endogenous in the lysate)) (UniProt P0A6F5)
Assay: SEC; E. coli K12 lysate on a BioSep SEC-S4000 column at 4 °C, 44 fractions; elution profile of each protein by label-free quantitative MS (iBAQ); coelution

| binding | Binder |
| --- | --- |
| binds | B1 |
| binds | B4 |
| binds | B7 |

Molecular target: RpoB-SPA (E. coli K12) (UniProt P0A8V2)
Assay: cross-linking; sulfo-SDA (50-1000 µM, 2 h on ice, UV 365 nm) on the TEV eluates of the YacL-SPA, RpoB-SPA and NusG-SPA enrichments; LC-MS; 2% residue pair FDR, 5% PPI FDR

| binding | Binder |
| --- | --- |
| binds | B10 |

Molecular target: rpoB (E. coli K12 (endogenous in the lysate)) (UniProt P0A8V2)
Assay: as above

| binding | Binder |
| --- | --- |
| binds | B11 |

Molecular target: rpoC (E. coli K12 (endogenous in the lysate)) (UniProt P0A8T7)
Assay: as above

| binding | Binder |
| --- | --- |
| binds | B12 |
| binds | B11 |
| binds | B13 |

Molecular target: T1, YqjD (E. coli K12 (endogenous in BW25113))
Assay: cross-linking; BS3 or DSSO (0.75 mM, 2 h on ice) in each of 44 SEC fractions of E. coli K12 BW25113 lysate, fractions pooled, digested, SCX and hSAX fractionation, LC-MS; PPIs at 1% heteromeric decoy-based PPI-FDR

| binding | Binder |
| --- | --- |
| binds | B14 |
